{
  "sequences": {"note": "Amino acid sequences for entries named in this document (tags omitted).", "UniProt Q90WI0": "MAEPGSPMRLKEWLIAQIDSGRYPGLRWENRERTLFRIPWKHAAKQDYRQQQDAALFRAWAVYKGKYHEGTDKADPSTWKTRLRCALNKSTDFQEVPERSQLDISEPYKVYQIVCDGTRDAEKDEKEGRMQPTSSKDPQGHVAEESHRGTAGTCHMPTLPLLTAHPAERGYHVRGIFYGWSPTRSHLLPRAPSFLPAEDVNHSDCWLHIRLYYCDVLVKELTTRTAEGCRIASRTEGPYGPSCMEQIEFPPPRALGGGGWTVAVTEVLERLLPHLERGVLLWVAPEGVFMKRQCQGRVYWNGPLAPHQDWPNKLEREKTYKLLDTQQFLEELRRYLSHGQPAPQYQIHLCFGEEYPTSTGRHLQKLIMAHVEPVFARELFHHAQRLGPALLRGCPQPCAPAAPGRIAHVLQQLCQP"},
  "source": "paper PMC12929097",
  "molecular_target": "T1, chicken stimulator of interferon genes (chSTING) (chicken) (UniProt E1C7U0)",
  "T1 sequence": "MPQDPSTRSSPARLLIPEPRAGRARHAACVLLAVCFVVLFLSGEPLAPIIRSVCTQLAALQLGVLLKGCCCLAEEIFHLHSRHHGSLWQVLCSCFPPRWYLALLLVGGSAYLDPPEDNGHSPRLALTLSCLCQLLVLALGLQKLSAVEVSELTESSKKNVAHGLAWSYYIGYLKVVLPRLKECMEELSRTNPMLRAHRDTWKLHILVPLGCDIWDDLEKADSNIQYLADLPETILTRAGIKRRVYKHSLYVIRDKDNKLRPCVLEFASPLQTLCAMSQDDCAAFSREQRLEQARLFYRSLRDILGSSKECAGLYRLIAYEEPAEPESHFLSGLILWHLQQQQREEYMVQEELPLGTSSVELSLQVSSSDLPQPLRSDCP",
  "experiment": "co-IP; 293T cells co-transfected for 48 h; cleared lysates from a 6-well plate incubated with 1 μg of specific antibody and Protein A/G PLUS-Agarose; eluate and input analysed by Western blotting",
  "note": "These are yes or no findings as the source states them, for the method shown. In cells and extracts the contact can be indirect. Some results given as binding are weak or reduced against the parent protein; the word gives no strength.",
  "data": [
    {"substance": "chicken interferon regulatory factor 10 (chIRF10) (from UniProt Q90WI0 1-416)", "values": [
      {"measurement": "binding", "result": "binds"}
    ]}
  ]
}
